Measured values reported in the supplement of paper PMC10849652.
This is one part of the list.

Sequences of proteins named here, by UniProt entry; tags and fusion partners are left off. A change or cut given only in a name is not applied to a line headed by its entry.
UniProt Q9Y692: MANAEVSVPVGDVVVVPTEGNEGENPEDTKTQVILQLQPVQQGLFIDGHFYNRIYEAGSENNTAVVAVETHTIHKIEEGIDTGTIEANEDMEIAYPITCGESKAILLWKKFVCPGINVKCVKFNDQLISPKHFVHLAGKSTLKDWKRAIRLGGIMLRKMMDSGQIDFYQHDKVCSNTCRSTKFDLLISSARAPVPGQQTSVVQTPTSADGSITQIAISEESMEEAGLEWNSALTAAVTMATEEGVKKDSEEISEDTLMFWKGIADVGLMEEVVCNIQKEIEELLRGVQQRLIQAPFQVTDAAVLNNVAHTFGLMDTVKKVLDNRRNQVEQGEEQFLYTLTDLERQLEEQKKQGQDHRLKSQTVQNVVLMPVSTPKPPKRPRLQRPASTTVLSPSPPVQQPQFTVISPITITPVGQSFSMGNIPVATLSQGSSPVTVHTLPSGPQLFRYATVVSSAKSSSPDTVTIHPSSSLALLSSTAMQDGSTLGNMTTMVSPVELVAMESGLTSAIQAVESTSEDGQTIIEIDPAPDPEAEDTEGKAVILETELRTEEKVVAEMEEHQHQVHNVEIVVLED
UniProt P06280: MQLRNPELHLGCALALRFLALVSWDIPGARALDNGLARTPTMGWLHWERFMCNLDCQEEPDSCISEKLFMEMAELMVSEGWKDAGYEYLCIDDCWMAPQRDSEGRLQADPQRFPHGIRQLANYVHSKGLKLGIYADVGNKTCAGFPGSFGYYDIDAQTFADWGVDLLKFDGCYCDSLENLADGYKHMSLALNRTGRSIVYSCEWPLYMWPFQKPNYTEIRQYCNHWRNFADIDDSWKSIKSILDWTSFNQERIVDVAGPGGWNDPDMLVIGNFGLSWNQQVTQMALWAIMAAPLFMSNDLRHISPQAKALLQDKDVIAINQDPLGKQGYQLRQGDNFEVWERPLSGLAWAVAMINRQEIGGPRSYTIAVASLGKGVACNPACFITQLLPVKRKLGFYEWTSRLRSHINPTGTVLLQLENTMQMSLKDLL
UniProt Q9UJJ9: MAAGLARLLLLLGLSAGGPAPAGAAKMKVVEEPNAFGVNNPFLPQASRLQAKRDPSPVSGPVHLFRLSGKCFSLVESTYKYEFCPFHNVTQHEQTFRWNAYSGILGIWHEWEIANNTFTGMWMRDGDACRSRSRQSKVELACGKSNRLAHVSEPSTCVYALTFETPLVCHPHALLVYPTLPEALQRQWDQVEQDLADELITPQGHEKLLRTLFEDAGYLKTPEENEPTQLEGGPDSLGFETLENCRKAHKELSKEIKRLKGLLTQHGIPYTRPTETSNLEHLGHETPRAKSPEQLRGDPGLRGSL
UniProt Q14956: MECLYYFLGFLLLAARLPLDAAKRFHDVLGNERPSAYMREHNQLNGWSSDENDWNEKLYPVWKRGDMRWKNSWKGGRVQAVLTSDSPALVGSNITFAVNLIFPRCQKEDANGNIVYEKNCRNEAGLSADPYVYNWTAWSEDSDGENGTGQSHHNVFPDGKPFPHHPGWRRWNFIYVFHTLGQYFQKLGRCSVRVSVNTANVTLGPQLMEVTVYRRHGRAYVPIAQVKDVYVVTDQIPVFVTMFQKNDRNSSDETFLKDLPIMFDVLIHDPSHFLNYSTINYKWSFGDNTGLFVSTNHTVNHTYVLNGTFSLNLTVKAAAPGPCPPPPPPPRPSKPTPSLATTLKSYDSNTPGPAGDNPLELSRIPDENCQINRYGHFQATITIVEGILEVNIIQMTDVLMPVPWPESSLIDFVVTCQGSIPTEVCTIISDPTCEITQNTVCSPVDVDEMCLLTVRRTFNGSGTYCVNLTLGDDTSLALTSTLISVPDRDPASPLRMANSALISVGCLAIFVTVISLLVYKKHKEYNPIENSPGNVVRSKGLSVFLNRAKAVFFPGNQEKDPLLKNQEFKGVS
UniProt Q9NWQ4: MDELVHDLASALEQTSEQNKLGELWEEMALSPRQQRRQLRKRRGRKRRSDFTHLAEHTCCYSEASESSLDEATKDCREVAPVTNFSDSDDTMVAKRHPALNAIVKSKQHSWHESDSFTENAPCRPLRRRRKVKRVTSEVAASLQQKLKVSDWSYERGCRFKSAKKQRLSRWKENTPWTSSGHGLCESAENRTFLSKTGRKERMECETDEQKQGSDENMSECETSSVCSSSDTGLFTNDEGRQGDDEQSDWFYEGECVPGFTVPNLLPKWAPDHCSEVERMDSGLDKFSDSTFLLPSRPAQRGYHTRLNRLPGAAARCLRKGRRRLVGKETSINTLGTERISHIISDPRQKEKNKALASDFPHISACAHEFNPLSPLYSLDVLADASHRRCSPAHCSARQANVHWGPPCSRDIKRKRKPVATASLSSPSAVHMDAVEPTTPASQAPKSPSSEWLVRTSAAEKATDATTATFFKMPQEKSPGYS
UniProt Q53GS7: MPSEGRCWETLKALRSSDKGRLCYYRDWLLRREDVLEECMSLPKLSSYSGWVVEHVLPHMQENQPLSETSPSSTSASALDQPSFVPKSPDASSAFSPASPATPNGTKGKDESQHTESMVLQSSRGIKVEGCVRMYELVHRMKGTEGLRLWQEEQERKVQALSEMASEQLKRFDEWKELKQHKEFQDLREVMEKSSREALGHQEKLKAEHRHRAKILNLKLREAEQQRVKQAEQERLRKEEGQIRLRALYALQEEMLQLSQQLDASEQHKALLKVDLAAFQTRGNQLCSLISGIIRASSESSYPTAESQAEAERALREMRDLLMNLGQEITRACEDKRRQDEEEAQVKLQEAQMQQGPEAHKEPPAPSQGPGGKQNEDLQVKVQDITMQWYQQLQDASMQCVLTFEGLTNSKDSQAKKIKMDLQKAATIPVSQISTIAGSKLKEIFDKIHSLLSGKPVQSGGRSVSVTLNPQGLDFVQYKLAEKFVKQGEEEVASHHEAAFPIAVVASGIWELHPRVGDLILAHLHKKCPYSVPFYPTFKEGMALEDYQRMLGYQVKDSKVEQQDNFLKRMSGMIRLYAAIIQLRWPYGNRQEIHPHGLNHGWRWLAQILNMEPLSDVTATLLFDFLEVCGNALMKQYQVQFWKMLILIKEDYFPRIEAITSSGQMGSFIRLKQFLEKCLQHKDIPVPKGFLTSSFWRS
UniProt Q03113, whole entry, looked up: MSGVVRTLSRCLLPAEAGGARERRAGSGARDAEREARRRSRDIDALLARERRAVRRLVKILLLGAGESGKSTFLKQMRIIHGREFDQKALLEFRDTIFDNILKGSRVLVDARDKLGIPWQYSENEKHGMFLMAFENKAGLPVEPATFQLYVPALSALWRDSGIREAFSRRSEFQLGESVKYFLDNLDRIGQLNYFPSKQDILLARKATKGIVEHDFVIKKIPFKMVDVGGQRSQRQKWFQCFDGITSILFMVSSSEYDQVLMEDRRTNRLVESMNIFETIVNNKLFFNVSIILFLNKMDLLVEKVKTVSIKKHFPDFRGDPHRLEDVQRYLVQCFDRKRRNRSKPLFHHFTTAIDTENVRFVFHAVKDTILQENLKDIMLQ
UniProt P22352, whole entry, looked up: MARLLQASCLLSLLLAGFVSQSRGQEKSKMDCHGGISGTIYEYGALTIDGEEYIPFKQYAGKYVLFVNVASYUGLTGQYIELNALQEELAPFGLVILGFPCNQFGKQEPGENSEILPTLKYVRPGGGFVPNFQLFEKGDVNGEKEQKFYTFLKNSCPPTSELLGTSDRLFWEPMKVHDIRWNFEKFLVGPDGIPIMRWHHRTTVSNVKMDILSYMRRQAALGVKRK
UniProt Q92805: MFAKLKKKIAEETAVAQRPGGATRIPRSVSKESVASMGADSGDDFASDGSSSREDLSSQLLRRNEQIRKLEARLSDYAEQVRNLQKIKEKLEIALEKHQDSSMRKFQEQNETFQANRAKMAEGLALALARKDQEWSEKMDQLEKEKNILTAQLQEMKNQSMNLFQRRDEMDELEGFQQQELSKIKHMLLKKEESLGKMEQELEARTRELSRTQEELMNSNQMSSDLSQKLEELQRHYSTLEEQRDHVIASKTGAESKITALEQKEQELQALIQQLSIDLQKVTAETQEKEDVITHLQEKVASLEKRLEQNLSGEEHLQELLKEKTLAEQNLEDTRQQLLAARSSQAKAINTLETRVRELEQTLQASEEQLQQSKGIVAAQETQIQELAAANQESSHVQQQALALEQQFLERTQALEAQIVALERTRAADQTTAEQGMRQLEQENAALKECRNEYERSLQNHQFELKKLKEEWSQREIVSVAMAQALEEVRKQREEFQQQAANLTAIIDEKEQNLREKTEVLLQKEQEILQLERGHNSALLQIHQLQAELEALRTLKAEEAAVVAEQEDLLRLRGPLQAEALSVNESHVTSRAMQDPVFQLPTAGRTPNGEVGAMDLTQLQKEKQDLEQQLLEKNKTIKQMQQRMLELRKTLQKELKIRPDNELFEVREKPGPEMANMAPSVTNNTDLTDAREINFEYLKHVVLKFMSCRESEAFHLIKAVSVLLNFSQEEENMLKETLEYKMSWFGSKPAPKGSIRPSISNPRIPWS
UniProt Q86V85: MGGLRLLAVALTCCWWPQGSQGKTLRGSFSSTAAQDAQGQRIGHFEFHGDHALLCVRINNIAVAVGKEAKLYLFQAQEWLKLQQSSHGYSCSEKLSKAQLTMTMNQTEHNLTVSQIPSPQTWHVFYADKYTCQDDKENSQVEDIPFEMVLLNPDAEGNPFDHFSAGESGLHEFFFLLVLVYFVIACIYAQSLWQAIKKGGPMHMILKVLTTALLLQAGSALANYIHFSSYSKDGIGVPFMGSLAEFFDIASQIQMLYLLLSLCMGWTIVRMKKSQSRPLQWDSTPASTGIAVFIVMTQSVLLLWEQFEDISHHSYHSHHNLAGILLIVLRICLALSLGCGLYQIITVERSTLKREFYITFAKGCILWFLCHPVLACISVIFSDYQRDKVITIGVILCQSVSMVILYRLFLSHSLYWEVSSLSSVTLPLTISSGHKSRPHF
UniProt O94923: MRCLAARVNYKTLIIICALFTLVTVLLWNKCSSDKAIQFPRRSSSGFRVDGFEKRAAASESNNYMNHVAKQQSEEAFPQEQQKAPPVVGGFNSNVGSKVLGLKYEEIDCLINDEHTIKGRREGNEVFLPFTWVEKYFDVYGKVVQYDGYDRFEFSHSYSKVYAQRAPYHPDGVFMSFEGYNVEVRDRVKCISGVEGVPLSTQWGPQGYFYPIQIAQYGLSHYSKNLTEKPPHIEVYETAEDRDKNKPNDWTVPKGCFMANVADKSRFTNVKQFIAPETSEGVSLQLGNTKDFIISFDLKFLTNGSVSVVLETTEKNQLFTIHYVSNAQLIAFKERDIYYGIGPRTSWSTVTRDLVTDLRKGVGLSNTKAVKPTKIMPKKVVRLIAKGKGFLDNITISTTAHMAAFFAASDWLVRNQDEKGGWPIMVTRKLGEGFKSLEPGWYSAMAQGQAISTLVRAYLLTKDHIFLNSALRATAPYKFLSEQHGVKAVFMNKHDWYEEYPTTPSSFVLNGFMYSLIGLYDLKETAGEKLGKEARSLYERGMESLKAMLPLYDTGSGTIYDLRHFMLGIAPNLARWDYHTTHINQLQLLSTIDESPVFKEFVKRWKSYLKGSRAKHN
UniProt Q9HCN6: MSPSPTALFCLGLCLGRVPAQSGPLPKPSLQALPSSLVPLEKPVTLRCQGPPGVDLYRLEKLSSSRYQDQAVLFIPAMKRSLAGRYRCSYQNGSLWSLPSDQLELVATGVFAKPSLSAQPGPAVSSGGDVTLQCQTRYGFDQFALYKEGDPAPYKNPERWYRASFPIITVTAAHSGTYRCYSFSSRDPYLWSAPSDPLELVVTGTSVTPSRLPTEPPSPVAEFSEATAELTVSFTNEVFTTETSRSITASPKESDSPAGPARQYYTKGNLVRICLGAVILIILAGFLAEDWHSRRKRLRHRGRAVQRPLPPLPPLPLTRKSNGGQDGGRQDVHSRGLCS
UniProt Q9BVP2: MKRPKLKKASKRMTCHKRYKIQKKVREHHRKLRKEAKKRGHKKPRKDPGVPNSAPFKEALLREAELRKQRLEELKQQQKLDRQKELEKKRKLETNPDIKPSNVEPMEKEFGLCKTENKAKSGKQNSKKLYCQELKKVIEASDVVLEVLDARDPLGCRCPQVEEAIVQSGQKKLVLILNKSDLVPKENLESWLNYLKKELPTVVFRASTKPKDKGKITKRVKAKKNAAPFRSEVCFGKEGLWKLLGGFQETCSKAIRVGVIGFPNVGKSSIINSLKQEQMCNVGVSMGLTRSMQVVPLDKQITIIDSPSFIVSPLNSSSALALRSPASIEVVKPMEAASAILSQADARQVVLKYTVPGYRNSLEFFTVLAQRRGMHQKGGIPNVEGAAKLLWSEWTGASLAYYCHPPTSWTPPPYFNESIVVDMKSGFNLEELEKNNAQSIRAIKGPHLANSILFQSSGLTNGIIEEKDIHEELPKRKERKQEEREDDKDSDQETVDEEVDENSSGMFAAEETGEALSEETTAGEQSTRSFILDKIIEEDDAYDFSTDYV

Experiments:
Test in all cases: log2 fold change, soluble protein after heating vs DMSO (PISA); higher = thermal stabilisation; K562 cells, 10 uM, 30 min; active = over 0.2 and 3.5 SD of the protein, either way, in both replicates (recomputed)
[1] = compound: CC1=C(C=C(C=C1)NC(=O)C2=CC(=CC=C2)C(C)(C)C#N)NC3=CC4=C(C=C3)N=CN(C4=O)C
Method in brief: (§1)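 K562 cells at 2×10^6 cells/mL were treated for 30 min with 10 μM compound, and aliquots were heated for 3 min over 48°C-58°C before pooling. Extraction used PBS with 0.5% NP-40 at 4°C, and soluble protein was the supernatant after 21,000xg for 90 min, measured by TMTpro 16plex LC-MS/MS with channel sums equalised. Thermal stability values, relative to control samples and from duplicates, are log2 fold changes.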

[2] = compound: CC1=C(C=C(C=C1)NC(=O)C2=CC(=CC=C2)N(C)C)NC(=O)C3=CC=C(C=C3)O
Method in brief: as §1

[3] = compound: CC1=CC=C(C=C1)SC2=C3C=C(SC3=CN=C2)C(=O)N
Method in brief: as §1

[4] = compound: CC1=NC(=CC=C1)C2=C(N=C(N2)C(C)(C)C)C3=CC4=NC=CN=C4C=C3
Method in brief: as §1

Nexturastat A = compound: CCCCN(Cc1ccc(C(=O)NO)cc1)C(=O)Nc1ccccc1 [Nexturastat A]
Method in brief: as §1

vemurafenib = compound: CCCS(=O)(=O)Nc1ccc(F)c(C(=O)c2c[nH]c3ncc(-c4ccc(Cl)cc4)cc23)c1F [vemurafenib]
Method in brief: as §1

[5] = compound: CCCS(=O)(=O)Nc1ccc(F)c(C(=O)c2c[nH]c3ncc(Cl)cc23)c1F
Method in brief: as §1

[6] = compound: CCCc1cc(C)[nH]c(=O)c1CNC(=O)c1cc(-c2ccnc(N3CCN(C)CC3)c2)cc2c1cnn2C(C)C
Method in brief: as §1

givinostat = compound: CCN(CC)Cc1ccc2cc(COC(=O)Nc3ccc(C(=O)NO)cc3)ccc2c1 [givinostat]
Method in brief: as §1

barasertib = compound: CCN(CCCOc1ccc2c(Nc3cc(CC(=O)Nc4cccc(F)c4)[nH]n3)ncnc2c1)CCOP(=O)(O)O [barasertib]
Method in brief: as §1

[7] = compound: CC[C@@H]1C(=O)N(C)c2cnc(Nc3ccc(C(=O)NC4CCN(C)CC4)cc3OC)nc2N1C1CCCC1
Method in brief: as §1

volasertib = compound: CC[C@@H]1C(=O)N(C)c2cnc(Nc3ccc(C(=O)N[C@H]4CC[C@H](N5CCN(CC6CC6)CC5)CC4)cc3OC)nc2N1C(C)C [volasertib]
Method in brief: as §1

[8] = compound: CC[C@H](C)N1C=C(C2=C(C=C(C=C21)C3=CN=C(C=C3)N4CCNCC4)C(=O)NCC5=C(C=C(NC5=O)C)C)C
Method in brief: as §1

epoxomicin = compound: CC[C@H](C)[C@@H](C(=O)N[C@@H]([C@@H](C)O)C(=O)N[C@@H](CC(C)C)C(=O)[C@]1(CO1)C)NC(=O)[C@H]([C@@H](C)CC)N(C)C(=O)C [epoxomicin]
Method in brief: as §1

[9] = compound: CCn1cc(-c2ccnc3[nH]c(-c4cccc(CN(C)C)c4)cc23)c(-c2ccc(NC(=O)N(C)C)cc2)n1
Method in brief: as §1

[10] = compound: CN(C)CC(=O)Nc1ccc2[nH]c(=O)c3ccccc3c2c1
Method in brief: as §1

[11] = compound: CN1C2=C(C3=C1C(=O)N(N=C3)CC4=CC(=CC=C4)N)SC(=C2)S(=O)C
Method in brief: as §1

[12] = compound: CN1CCC(CNc2ccc3ncc(-c4cccc(OC(F)(F)F)c4)n3n2)CC1
Method in brief: as §1

[13] = compound: CCn1c(C(=O)N(C2CC2)C2CC2)cc2c3c(ncn3C)c(Nc3cc(C)n(C)n3)nc21
Method in brief: as §1

rosiglitazone = compound: CN(CCOC1=CC=C(C=C1)C[C@H]2C(=O)NC(=O)S2)C3=CC=CC=N3 (racemic) [rosiglitazone]
Method in brief: as §1

Measured: log2 fold change

GMEB1 (UniProt Q9Y692)
inactive: [1] 0.088 | [2] 0.041 | [3] 0.04 | [4] 0.014 | Nexturastat A -0.041 | vemurafenib -0.048 | [5] 0.154 | [6] 0.047 | givinostat 0.058 | barasertib 0.008 | [7] -0.071 | [8] 0.039 | epoxomicin 0.059 | [9] -0.05 | [10] -0.045 | [11] -0.07 | [12] -0.014
active: volasertib -0.281

GLA (UniProt P06280)
active: [7] -0.449 | volasertib -0.911 | [12] -0.535
inactive: [1] -0.016 | [2] 0.027 | [3] -0.001 | [4] 0.011 | Nexturastat A 0.005 | vemurafenib -0.009 | [5] -0.038 | [6] -0.039 | givinostat 0.04 | barasertib 0.005 | [8] 0.002 | epoxomicin 0.026 | [9] 0.03 | [10] -0.001 | [11] 0.005

GNPTG (UniProt Q9UJJ9)
inactive: [2] 0.017 | [4] -0.127 | Nexturastat A -0.173 | [6] -0.022 | givinostat 0.006 | barasertib 0.008 | [8] 0.055 | epoxomicin -0.073 | [13] -0.013 | [9] 0.057 | rosiglitazone -0.021 | [11] 0.01 | [12] 0.124

GPNMB (UniProt Q14956)
active: Nexturastat A 1.64
inactive: givinostat 0.671 | [7] 0.206 | epoxomicin -0.191

GPATCH2L (UniProt Q9NWQ4)
inactive: givinostat -0.144 | [13] -0.135

GLE1 (UniProt Q53GS7)
inactive: [11] 0.459

GNA12 (UniProt Q03113)
inactive: [1] -0.056 | [3] -0.043 | [4] -0.132 | Nexturastat A -0.255 | vemurafenib -0.101 | [5] -0.197 | [6] -0.267 | givinostat 0.06 | barasertib 0 | [7] 0.148 | volasertib 0.104 | [8] -0.318 | epoxomicin -0.091 | [13] -0.095 | [9] 0.255 | [10] -0.077 | rosiglitazone 0.05 | [11] 0.052 | [12] -0.035

GPX3 (UniProt P22352)
inactive: [2] -0.021 | [3] 0.066 | Nexturastat A 0.195 | vemurafenib 0.013 | [5] -0.099 | givinostat -0.081 | barasertib -0.081 | [7] 0.058 | volasertib -0.228 | epoxomicin -0.194 | [13] -0.115 | [10] -0.097 | rosiglitazone 0.057 | [11] -0.001

Random excerpt: 2 records from the list, in no set order.
GPX3 (UniProt P22352)
inactive: [2] -0.021 | [3] 0.066 | Nexturastat A 0.195 | vemurafenib 0.013 | [5] -0.099 | givinostat -0.081 | barasertib -0.081 | [7] 0.058 | volasertib -0.228 | epoxomicin -0.194 | [13] -0.115 | [10] -0.097 | rosiglitazone 0.057 | [11] -0.001

GLE1 (UniProt Q53GS7)
inactive: [11] 0.459

Later entries

GOSR1 (UniProt E9PCW1)
inactive: [3] -0.022 | [5] 0.052 | [6] 0.089 | givinostat -0.038 | barasertib 0.123 | [7] -0.171 | volasertib -0.019 | [13] -0.146 | rosiglitazone -0.012 | [11] 0.149

GOLGA1 (UniProt Q92805)
inactive: [2] -0.072 | [3] 0.067 | vemurafenib 0.289 | [5] -0.065 | givinostat 0.04 | volasertib 0.044 | [13] -0.011 | [9] 0.077 | [10] 0.218 | [11] 0.116 | [12] 0.012

GPR180 (UniProt Q86V85)
inactive: [1] 0.033 | [3] -0.035 | Nexturastat A -0.031 | vemurafenib 0.139 | [5] 0.067 | [6] -0.147 | barasertib 0.407 | volasertib -0.124 | epoxomicin -0.09 | [9] -0.054 | [10] 0.046 | rosiglitazone -0.354 | [11] 0.117 | [12] -0.333

GLCE (UniProt O94923)
inactive: [1] -0.024 | [3] 0.099 | [4] 0.018 | [5] -0.034 | givinostat -0.069 | barasertib 0.05 | volasertib -0.179 | [8] 0.015 | [13] 0.009 | rosiglitazone -0.04

GP6 isoform 3 (UniProt Q9HCN6)
inactive: [4] 0.047 | [6] -0.082 | givinostat 0 | barasertib 0.071 | [13] 0.047 | rosiglitazone -0.056

GNL3 (UniProt Q9BVP2)
active: Nexturastat A 0.491
inactive: [1] 0.002 | vemurafenib -0.12 | [6] -0.307 | barasertib 0.079 | [7] 0.018 | [8] -0.197 | epoxomicin -0.06 | [9] 0.118 | [10] 0.002 | [11] -0.103 | [12] 0.081

GPS1 (UniProt A8K070)
inactive: [2] 0.013 | [4] -0.339 | [6] -0.095 | givinostat -0.032 | barasertib -0.014 | [7] 0.098 | [8] 0.001 | [13] -0.037 | [9] -0.127 | rosiglitazone 0.058 | [12] 0.015
